From publication PMC5738357

The chains behind the UniProt entries cited, without tags or fusion partners. Where a name states a change or a piece, a line headed by the entry shows the natural chain unless it says otherwise.
UniProt P39938: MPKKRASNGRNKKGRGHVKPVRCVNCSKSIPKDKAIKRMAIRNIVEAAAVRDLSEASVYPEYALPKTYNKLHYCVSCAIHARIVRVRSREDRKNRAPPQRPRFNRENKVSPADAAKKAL

Target: T1, Asc1-FTpA (S. cerevisiae) (UniProt P38011)
T1 sequence: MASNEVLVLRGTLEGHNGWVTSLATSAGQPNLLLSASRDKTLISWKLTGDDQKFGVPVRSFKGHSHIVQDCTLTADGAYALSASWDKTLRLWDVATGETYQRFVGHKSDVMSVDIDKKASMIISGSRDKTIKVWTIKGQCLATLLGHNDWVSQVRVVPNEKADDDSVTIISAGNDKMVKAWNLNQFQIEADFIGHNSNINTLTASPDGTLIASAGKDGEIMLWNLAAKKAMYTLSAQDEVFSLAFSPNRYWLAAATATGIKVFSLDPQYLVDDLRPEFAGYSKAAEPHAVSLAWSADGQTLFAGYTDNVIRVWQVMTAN
Test: co-IP; tandem affinity-purification of FTpA-tagged yeast baits (IgG Sepharose, TEV, Flag agarose); western blotting of the Flag eluates; cells with or without depletion of Dim2 or Krr1 where told

Rps26 (from UniProt P39938)
binding: binds

Results are given in words; binding and its absence hold for the method and conditions named. In cells and extracts the contact can be indirect. Binding calls can cover weak binding; strength is not graded here.
